Test results reported in PubChem BioAssay AID1487 (National Center for Advancing Translational Sciences (NCATS), 2009).
Some of the results follow. Shown are side measurements of this screen, not its main read-out; they come without a call. Most of these compounds were active or inconclusive in the main read-out, so they are no random draw. The note in brackets gives the kind of curve behind each potency; many fits are weak.

Experiment: qHTS Assay for Modulators of Lamin A Splicing
Settings: HeLa LMNA splicing GFP/RFP minigene ratio, 48 h
Summary of the method: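 Read-out is the ratio of GFP to DsRed2 object intensity, acquired by 488 nm laser-scanning cytometry on HeLa lamin A-EGFP minigene reporter cells. Compound incubation 48 hrs at 37 °C in Opti-MEM with 2% FBS; DMSO 0.5% final.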

[1] = measured here: GFP splicing reporter channel
[2] = measured here: RFP viability control channel

OCCOCCN1CCN(C(c2ccccc2)c2ccc(Cl)cc2)CC1 (stereo not given)
AC50 [1]: 8.91 µM [falling, partial curve, poor fit]
AC50 [2]: 31.6 µM [rising, single point]

CC(=O)Cc1nsc(NC(=O)c2ccc(-c3ccc(Cl)c(C(F)(F)F)c3)o2)n1
AC50 [1]: 35.5 µM [rising, single point]
AC50 [2]: 35.5 µM [rising, single point]

O=C(CC1N=C2c3ccccc3N=C(SCc3cccc(F)c3)N2C1=O)NCc1ccc2c(c1)OCO2 (stereo not given)
AC50 [2]: 0.0631 µM [falling, full curve]

CCc1ccc(N(C(=O)c2snc(C(N)=O)c2N)C(C(=O)NCCC(C)C)c2c[nH]c3ccccc23)cc1 (stereo not given)
AC50 [1]: 15.8 µM [falling, partial curve, poor fit]
AC50 [2]: 17.8 µM [falling, single point]

O=C(Nc1ccc(Cc2ccncc2)cc1)C1CCC(N2C(=O)C3C4C=CC(C5CC45)C3C2=O)CC1 (stereo not given)
AC50 [1]: 35.5 µM [rising, single point]
AC50 [2]: 14.1 µM [rising, partial curve]

O=C(O)c1ccc(N/N=C/c2ccc(-c3ccccc3)cc2)cc1
AC50 [1]: 0.01 µM [rising, single point]

O=[N+]([O-])c1cc([N+](=O)[O-])c2cccnc2c1Oc1ccccc1O
AC50 [2]: 1.12 µM [rising, partial curve]

COc1ccc(OC)c(S(=O)(=O)N(C)CC(=O)N2CCN(c3cccc(Cl)c3)CC2)c1
AC50 [2]: 31.6 µM [rising, single point]

Cc1ccc(OS(=O)(=O)c2ccccc2)c(/C=N/N=C2\NC(=O)C(C)S2)c1 (stereo not given)
AC50 [2]: 14.1 µM [rising, single point]

CC(NC(=O)/C(=C/c1ccc2c(c1)OCO2)NC(=O)c1cccc([N+](=O)[O-])c1)C(=O)O (stereo not given)
AC50 [1]: 0.447 µM [falling, full curve, poor fit]
AC50 [2]: 0.316 µM [falling, full curve, poor fit]

Cc1ccc(N2CCN(C(=O)c3cc(S(=O)(=O)N4CCCCC4)c[nH]3)CC2)c(C)c1
AC50 [1]: 22.4 µM [falling, single point]

Oc1ccc(CN2CCCCC2)c2cccnc12
AC50 [2]: 35.5 µM [rising, single point]

Cc1c2cnn(-c3ccccc3)c(=O)c2c(C)n1CCCC(=O)N1CCN(c2ncccn2)CC1
AC50 [2]: 20 µM [rising, single point]

O=C(CN1C(=O)NC2(CCCc3ccccc32)C1=O)Nc1cccc(S(=O)(=O)N2CCCCC2)c1 (stereo not given)
AC50 [1]: 35.5 µM [rising, single point]
AC50 [2]: 15.8 µM [rising, partial curve]

COCCOC(=O)C1=C(C)NC2=C(C(=O)CC(c3cccs3)C2)C1c1ccsc1 (stereo not given)
AC50 [2]: 35.5 µM [rising, single point]

CCNc1nc(NCC)nc(NC(N)=S)n1
AC50 [1]: 0.0112 µM [falling, full curve, poor fit]

Cn1c(Oc2ccccc2NCc2cc(Br)ccc2O)cc(=O)n(C)c1=O
AC50 [2]: 35.5 µM [rising, single point]

O=S(=O)(NCCSc1nnc(-c2ccco2)n1-c1ccccc1)c1ccccc1
AC50 [1]: 31.6 µM [rising, single point]
AC50 [2]: 31.6 µM [rising, single point]

Cn1c(C(=O)Nc2ccc3c(c2)OCCO3)cc2c(=O)n(C)c3ccccc3c21
AC50 [2]: 8.91 µM [rising, partial curve]

O=C1CCc2cc(S(=O)(=O)N3CCN(c4ccccc4F)CC3)ccc2N1
AC50 [2]: 15.8 µM [rising, single point]

COc1ccc(OC)c(NC2=C(Cl)C(=O)N(Cc3ccccc3)C2=O)c1
AC50 [1]: 3.55 µM [rising, single point]
AC50 [2]: 11.2 µM [falling, partial curve, poor fit]

O=C(CSc1nccn1-c1ccccc1)NCc1ccc(F)cc1
AC50 [1]: 1.26 µM [falling, full curve]
AC50 [2]: 0.501 µM [falling, full curve, poor fit]

COc1ccc(NC(=O)ON=C2c3ccccc3-c3ccccc32)cc1
AC50 [1]: 11.2 µM [rising, partial curve, poor fit]

CC(=O)N(c1ccccc1)C(C)c1nc(C#N)c(C#N)nc1C (stereo not given)
AC50 [1]: 11.2 µM [rising, partial curve, poor fit]
AC50 [2]: 11.2 µM [rising, partial curve, poor fit]

Cn1c(SCc2nc3ccccc3c(=O)[nH]2)nc2ccccc21
AC50 [1]: 0.0794 µM [falling, partial curve, poor fit]
AC50 [2]: 0.251 µM [falling, partial curve]

CN1CCN(c2nc(Nc3ccc(O)cc3)nc3ccccc23)CC1
AC50 [1]: 3.16 µM [falling, single point]
AC50 [2]: 6.31 µM [falling, single point]

COc1cccc(C2=NOC(C(=O)Nc3cccnc3Cl)C2)c1 (stereo not given)
AC50 [1]: 5.01 µM [rising, partial curve, poor fit]
AC50 [2]: 3.16 µM [rising, partial curve]

Cc1ccc(CNC(=O)CSc2nc3c(sc4ccccc43)c(=O)n2CCCN2CCCC2)cc1
AC50 [1]: 0.355 µM [rising, partial curve, poor fit]
AC50 [2]: 31.6 µM [rising, single point]

C=C(C)COc1ccc(-c2nc(N)nc(C)c2Oc2ccccc2OC)c(O)c1
AC50 [1]: 11.2 µM [rising, partial curve, poor fit]
AC50 [2]: 25.1 µM [rising, single point]

CCCCCCCC(=O)O
AC50 [1]: 0.000891 µM [falling, full curve, poor fit]
AC50 [2]: 0.000891 µM [falling, full curve, poor fit]

CC[C@H](NC(C)C)[C@H](O)c1ccc(O)c2[nH]c(=O)ccc12
AC50 [1]: 11.2 µM [falling, single point]
AC50 [2]: 0.891 µM [falling, single point]

O=C1C(=O)N(CCN2CCOCC2)C(c2ccccn2)/C1=C(/O)c1ccc(F)cc1 (stereo not given)
AC50 [2]: 15.8 µM [rising, single point]

O=C(COc1ncnc2cc([N+](=O)[O-])ccc12)N(CCc1ccccc1)Cc1ccccc1
AC50 [2]: 35.5 µM [rising, single point]

O=C(Cc1ccc2c(c1)OCCO2)N1CCN(S(=O)(=O)c2cccc(Cl)c2Cl)CC1
AC50 [1]: 11.2 µM [rising, partial curve, poor fit]
AC50 [2]: 14.1 µM [rising, partial curve]

Cc1cc(C(=O)CC#N)c(C)n1-c1c(C)n(C)n(-c2ccccc2)c1=O
AC50 [2]: 0.00447 µM [falling, full curve, poor fit]

O=c1oc(-c2cccs2)nc2sc3c(c12)CCCC3
AC50 [1]: 35.5 µM [rising, single point]

COC(=O)c1sc(NC(=O)c2cccc([N+](=O)[O-])c2)c(C(N)=O)c1C
AC50 [2]: 5.62 µM [rising, single point]

CC(=O)c1c(C)[nH]c(C(=O)OCC(=O)Nc2ccc(Cl)cc2[N+](=O)[O-])c1C
AC50 [1]: 2.82 µM [rising, full curve]
AC50 [2]: 3.55 µM [rising, full curve]

COC(=O)c1ccccc1NC(=O)c1c(O)c2cccc3c2n(c1=O)CCC3
AC50 [2]: 5.62 µM [rising, single point]

CCOC(=O)c1cn(Cc2c(C)c(C)c(C)c(C)c2C)nn1
AC50 [1]: 0.447 µM [rising, full curve, poor fit]

CCOC(=O)c1ccc(NS(=O)(=O)c2ccc(SC)cc2)cc1
AC50 [2]: 10 µM [rising, partial curve]

CCCCOC(=O)c1nc[nH]c1C(=O)OCCCC
AC50 [1]: 28.2 µM [falling, single point]
AC50 [2]: 15.8 µM [falling, single point]

CCN1/C(=C/c2ccc3ccccc3[n+]2CC)C=Cc2ccccc21
AC50 [2]: 5.62 µM [rising, partial curve, poor fit]

CC(C)CC(=O)N[C@H](C(=O)N[C@H](C(=O)N[C@@H](CC(C)C)[C@H](O)CC(=O)N[C@@H](C)C(=O)N[C@@H](CC(C)C)[C@H](O)CC(=O)O)C(C)C)C(C)C
AC50 [1]: 2 µM [falling, single point]
AC50 [2]: 0.0891 µM [falling, partial curve]

O=C(Nc1ccc(Cc2ccc(NC(=O)C3CC3)cc2)cc1)C1CC1
AC50 [2]: 2 µM [falling, partial curve, poor fit]

Cc1nc2cnc(N(C)C)nc2n(CCc2ccccc2)c1=O
AC50 [1]: 12.6 µM [falling, partial curve]

CCc1cc2c(COC(=O)c3c(C)noc3C)cc(=O)oc2cc1O
AC50 [1]: 5.62 µM [rising, partial curve]
AC50 [2]: 35.5 µM [falling, single point]

CCOC(=O)Cc1csc(N/N=C/c2ccccc2)n1
AC50 [2]: 15.8 µM [rising, single point]

CCOC(=O)C1=C(O)/C(=C\c2ccc(CNC(=O)C(=O)Nc3ccccc3)o2)N=C1C
AC50 [1]: 5.62 µM [falling, partial curve]
AC50 [2]: 4.47 µM [falling, partial curve]

Cc1cccc(-n2c(=S)[nH]c3c(oc4ccccc43)c2=O)c1
AC50 [2]: 0.891 µM [rising, partial curve, poor fit]

CCC(C)Nc1oc(-c2ccc(COc3ccc(Cl)cc3)o2)nc1C#N (stereo not given)
AC50 [1]: 4.47 µM [rising, partial curve]

O=[N+]([O-])c1ccc(CSc2nnc(SCc3ccc(Cl)cc3)s2)cc1
AC50 [2]: 12.6 µM [rising, single point]
